Test results taken from PMC5490268.
These are yes or no findings as the source states them, for the method shown. Binding seen in cells or lysates may run through a third protein. Sequences can lack the tags named with a protein.

Protein sequences, listed by entry. Tags and fused reporters are not part of them.
UniProt P97926: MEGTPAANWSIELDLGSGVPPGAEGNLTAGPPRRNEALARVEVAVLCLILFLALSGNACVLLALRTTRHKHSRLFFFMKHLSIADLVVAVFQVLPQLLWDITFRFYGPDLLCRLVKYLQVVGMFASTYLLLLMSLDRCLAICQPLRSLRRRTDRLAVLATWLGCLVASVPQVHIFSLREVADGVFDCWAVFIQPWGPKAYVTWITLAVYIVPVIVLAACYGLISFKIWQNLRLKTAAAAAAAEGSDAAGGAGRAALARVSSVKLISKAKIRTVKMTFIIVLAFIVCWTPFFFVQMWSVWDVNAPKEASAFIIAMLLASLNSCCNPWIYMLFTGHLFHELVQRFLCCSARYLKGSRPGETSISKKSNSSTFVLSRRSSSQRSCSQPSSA

Molecular target: Myc-tagged oxytocin receptor (OTR) (UniProt P97926)
Experiment: co-IP; HEK293T cells transfected with pcDNA3 HA-A1R and Myc-OTR plasmids; lysates incubated with 2 ug non-immune IgG, anti-HA or anti-Myc antibody, protein A/G-agarose; western blot with anti-Myc or anti-HA

binding: no binding
B1: HA-tagged mouse adenosine receptor A1R (receptor, UniProt Q60612 1-326)
chain: MPPYISAFQAAYIGIEVLIALVSVPGNVLVIWAVKVNQALRDATFCFIVSLAVADVAVGALVIPLAILINIGPQTYFHTCLMVACPVLILTQSSILALLAIAVDRYLRVKIPLRYKTVVTQRRAAVAIAGCWILSLVVGLTPMFGWNNLSEVEQAWIANGSVGEPVIKCEFEKVISMEYMVYFNFFVWVLPPLLLMVLIYLEVFYLIRKQLNKKVSASSGDPQKYYGKELKIAKSLALILFLFALSWLPLHILNCITLFCPTCQKPSILIYIAIFLTHGNSAMNPIVYAFRIHKFRVTFLKIWNDHFRCQPKPPIEEDIPEEKADD
